Test results taken from paper doi:10.1101/2021.06.20.449050.
No constants are given. Whether binding was seen depends on the method and setting. Binding seen in cells or lysates may run through a third protein. Here binding means that the protein was enriched with, or labelled near, the bait; the list need not be complete.

Chains of the proteins cited; added tags and fusions are not shown.
UniProt Q9LMJ4: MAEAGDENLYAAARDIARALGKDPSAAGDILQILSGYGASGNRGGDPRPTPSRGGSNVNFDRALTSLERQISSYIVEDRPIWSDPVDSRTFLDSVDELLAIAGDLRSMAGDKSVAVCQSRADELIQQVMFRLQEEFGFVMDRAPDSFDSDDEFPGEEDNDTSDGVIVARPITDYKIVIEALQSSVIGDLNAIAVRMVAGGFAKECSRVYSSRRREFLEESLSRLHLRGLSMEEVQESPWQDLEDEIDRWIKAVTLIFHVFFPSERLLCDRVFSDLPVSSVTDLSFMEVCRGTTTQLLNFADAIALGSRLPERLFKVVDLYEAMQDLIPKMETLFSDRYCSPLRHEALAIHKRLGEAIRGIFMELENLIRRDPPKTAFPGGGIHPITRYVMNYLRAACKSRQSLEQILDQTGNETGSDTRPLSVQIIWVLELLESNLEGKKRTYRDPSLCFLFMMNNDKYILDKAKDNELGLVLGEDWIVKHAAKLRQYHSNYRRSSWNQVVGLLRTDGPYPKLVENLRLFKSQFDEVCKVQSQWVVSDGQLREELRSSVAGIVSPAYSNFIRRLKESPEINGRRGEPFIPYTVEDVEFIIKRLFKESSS
UniProt Q9LW76: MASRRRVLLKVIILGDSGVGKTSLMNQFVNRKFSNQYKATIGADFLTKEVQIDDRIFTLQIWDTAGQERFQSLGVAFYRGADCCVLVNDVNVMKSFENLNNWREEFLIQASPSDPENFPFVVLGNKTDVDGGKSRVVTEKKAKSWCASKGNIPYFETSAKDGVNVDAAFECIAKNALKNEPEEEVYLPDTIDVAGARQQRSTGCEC

Target: EXO70B2-GFP (Arabidopsis thaliana) (UniProt Q9LMJ4)
Experiment: affinity purification with mass spectrometry

With RabG3C (from UniProt Q9LW76 1-206) as the substance, how does the binding read?
The binding was “binds”.
